{"source": "PubChem BioAssay AID540256", "about": "(National Center for Advancing Translational Sciences (NCATS), 2011)", "note": "Several values for one entry are separate records, joined by “and”; a condition that tells them apart may be missing. Equal entries are not always repeated. Screen size: about 300,000 compounds; about 3,700 (1.2%) were called active. The inconclusive results got no clear call from the source; some entries with a clear call stand among them for comparison. Calls come from the whole dose curve; tested in HEK293 cells. A potency beside an inconclusive call is a rough fit, not a confirmed value. % is set by controls: 0 for no effect and ±100 for the full control effect; potency is the fitted concentration of half-maximal effect."}
{"assay": "qHTS for Inhibitors of binding or entry into cells for Lassa Virus; note: nearly all actives have a fitted effect of over 50% in size", "details": "Lassa virus pseudotype entry inhibition, cell reporter; activity change, negative = inhibition: at 37.9 µM (top of the series) unless noted"}
{"compound": "COc1cccc(C(=O)NCCS(=O)(=O)N2CCCC2)c1", "Potency": "inconclusive: 0.631 µM [activator, full curve]"}
{"compound": "COc1ccc(-n2c(O)c(C(C)=NCCCn3ccnc3)c(=O)[nH]c2=O)cc1", "Potency": "inconclusive: 14.6 µM [activator, single point]"}
{"compound": "CCCC(=O)N/C(N)=N/c1nc(C)c2cc(C)ccc2n1", "Potency": "inconclusive: 2.82 µM [activator, single point]"}
{"compound": "O=C(NCC1CCCO1)C(c1cccs1)N(Cc1ccccc1Cl)C(=O)c1ccc(-c2ccccc2)[nH]1", "note": "(stereo unspecified)", "Potency": "inconclusive: 18.4 µM [inhibitor, partial curve, poor fit]"}
{"compound": "CCc1nc(C)cn1S(=O)(=O)c1cc(Cl)c(OC)cc1Cl", "Potency": "inconclusive: 8.2 µM [inhibitor, partial curve]"}
{"compound": "CC(NC(=O)OC(C)(C)C)C(=O)NC(CCC(=O)OCc1ccccc1)C(N)=O", "note": "(stereo unspecified)", "activity change, negative = inhibition": "inactive: -4.39%"}
{"compound": "CCCn1c(NCc2ccccc2NS(=O)(=O)c2ccc(C)cc2)nc2ccccc21", "Potency": "inconclusive: 13 µM [inhibitor, partial curve, poor fit]"}
{"compound": "O=C(NC1CCCCCC1)c1nnc(Cc2ccc(Cl)cc2)o1", "Potency": "inconclusive: 0.164 µM [inhibitor, full curve, poor fit]"}
{"compound": "COc1ccc(CNC(=O)OCCN2CCN(Cc3ccccc3)CCC2=O)cc1", "Potency": "inconclusive: 29.1 µM [inhibitor, partial curve, poor fit]"}
{"compound": "COc1ccc(N2CCN(C(CNS(=O)(=O)c3ccc4c(c3)OCCO4)c3ccco3)CC2)cc1", "note": "(stereo unspecified)", "Potency": "inconclusive: 3.16 µM [inhibitor, single point]"}
{"compound": "CCOC(=O)C1(CCc2ccccc2)CCN(Cc2nccn2CC)CC1", "activity change, negative = inhibition": "inactive: 5.17%"}
{"compound": "O=C(CSc1nnc(-c2ccccn2)o1)Nc1cccc(Cl)c1", "Potency": "inconclusive: 6.31 µM [activator, single point]"}
{"compound": "CN(C)C(=O)CSc1nnc(CCN)o1", "Potency": "inconclusive: 0.103 µM [activator, full curve, poor fit]"}
{"compound": "COc1ccc(CCNC(=O)c2cc(-c3ccccc3)nc3ccccc23)cc1OC", "Potency": "inconclusive: 35.5 µM [inhibitor, single point]"}
{"compound": "O=C(CNC(=S)N(CCCN1CCOCC1)Cc1cccs1)NC1CCCCCCC1", "Potency": "inconclusive: 5.62 µM [activator, single point]"}
{"compound": "NC(=S)NN=C1c2ccccc2-c2c(F)c(F)c(F)c(F)c21", "Potency": "inconclusive: 14.1 µM [inhibitor, single point]"}
{"compound": "CC(=O)NC12CC3CC(C1)CC(C(=O)N(C)Cc1cccc(Cl)c1Cl)(C3)C2", "activity change, negative = inhibition": "inactive: -4.06% [at 46.1 µM]"}
{"compound": "CCCN1C(=O)/C(=C/c2ccc(N3CCCC3)c(C)c2)NC1=S", "Potency": "inconclusive: 20.6 µM [inhibitor, single point]"}
{"compound": "COc1ccc(-c2csc(N3C(=O)CNC3=S)n2)cc1", "Potency": "inconclusive: 8.91 µM [inhibitor, partial curve, poor fit]"}
{"compound": "CC(=O)NCCOc1ccc2oc3ccccc3c2c1", "Potency": "inconclusive: 16.4 µM [activator, single point]"}
{"compound": "Cc1cc(NC(=O)C(C)SCC(=O)N(Cc2ccccc2)c2ccccc2)no1", "note": "(stereo unspecified)", "Potency": "inconclusive: 1.12 µM [inhibitor, full curve, poor fit]"}
{"compound": "CCCn1c(O)c(N=NC(=O)c2ccco2)c2ccccc21", "Potency": "inconclusive: 0.562 µM [activator, single point]"}
{"compound": "COc1cccc(/C=N/NC(=O)C(=O)N/N=C/c2cccc(OC)c2O)c1O", "Potency": "inconclusive: 31.6 µM [inhibitor, single point]"}
{"compound": "Cc1ccc(N=Nc2c(O)[nH]c(=O)[nH]c2=O)c([N+](=O)[O-])c1", "Potency": "inconclusive: 3.98 µM [activator, partial curve, poor fit]"}
{"compound": "CC(C)(C)c1cc(-c2n[nH]c(=S)n2-c2ccccc2F)n[nH]1", "activity change, negative = inhibition": "inactive: 12.1%"}
{"compound": "CCc1ccc(-n2c(SCC(=O)c3ccc4c(c3)NC(=O)CO4)nc3ccccc3c2=O)cc1", "Potency": "inconclusive: 1.26 µM [inhibitor, single point]"}
{"compound": "CCCNC(=O)/C=C/c1ccc(S(=O)(=O)Nc2ccccc2OC)cc1", "Potency": "active: 5.01 µM"}
{"compound": "CCCC12CN3CC(CCC)(CN(C1)C3c1c[nH]c3ccccc13)C2=O", "note": "(stereo unspecified)", "activity change, negative = inhibition": "inactive: 1.2% [at 46.1 µM]"}
{"compound": "COc1ccc(-c2nc(-c3ccccc3)c(-c3ccccc3)[nH]2)cc1Br", "Potency": "inconclusive: 35.5 µM [activator, single point]"}
{"compound": "Oc1c(I)cc(Cl)c2cccnc12", "activity change, negative = inhibition": "inactive: -15.5%"}
{"compound": "C/C(=N\\NC(=O)c1ccccc1)C1C2C=CC(C2)C1(C)C", "note": "(stereo unspecified)", "Potency": "inconclusive: 35.5 µM [inhibitor, single point]"}
{"compound": "CCc1noc(C)c1C(=O)Nc1ccc(C#N)cc1", "Potency": "inconclusive: 20 µM [activator, partial curve, poor fit]"}
{"compound": "C=C(C)COc1ccc(-c2[nH]ncc2-c2ccc(Br)cc2)c(O)c1", "Potency": "inconclusive: 1.46 µM [inhibitor, full curve]"}
{"compound": "O=C(N/N=C/C=C/c1ccccc1)c1cccnc1", "Potency": "inconclusive: 7.08 µM [inhibitor, partial curve, poor fit]"}
{"compound": "CC(C)c1ccc(-c2csc3ncnc(N4CCN(C)CC4)c23)cc1", "Potency": "inconclusive: 10 µM [inhibitor, partial curve, poor fit]"}
{"compound": "COc1cccc(C=NNC(=O)c2ccncc2)c1O", "Potency": "inconclusive: 3.98 µM [inhibitor, full curve, poor fit]"}
{"compound": "CSc1nccc(-c2nn(-c3ccc(C)cc3)ccc2=O)n1", "Potency": "inconclusive: 0.92 µM [inhibitor, partial curve]"}
{"compound": "CCOc1cc(/C=C(\\C#N)c2nc(-c3cccs3)c(NC(C)=O)s2)ccc1O", "Potency": "inconclusive: 5.8 µM [inhibitor, full curve, poor fit]"}
{"compound": "CCCCNC(=O)Oc1cccc(N2CCCC2=O)c1", "Potency": "inconclusive: 15.8 µM [activator, single point]"}
{"compound": "O=C(CCCOc1ccc(Cl)cc1)N1CCCCCC1", "activity change, negative = inhibition": "inactive: 0%"}
{"compound": "O=P(c1ccccc1)(c1ccccc1)C1CCCO1", "note": "(stereo unspecified)", "Potency": "inconclusive: 0.146 µM [activator, full curve, poor fit]"}
{"compound": "CCN(C(=O)C1CCN(S(=O)(=O)c2ccc3c(c2)CCCN3C(=O)C2CCC2)CC1)c1cccc(C)c1", "Potency": "inconclusive: 5.01 µM [inhibitor, full curve, poor fit]"}
{"compound": "CCCc1nn2c(=O)cc(COC(=O)c3ccc(NC(=O)C(C)Oc4ccccc4)cc3)nc2s1", "note": "(stereo unspecified)", "Potency": "inconclusive: 2.82 µM [inhibitor, single point]"}
{"compound": "Cc1ccc2nc(-c3cccnc3)cc(C(=O)Nc3ccc(F)cc3C)c2c1", "Potency": "inconclusive: 0.562 µM [activator, single point]"}
{"compound": "COc1ccc(NC(=O)c2nnn(CC(=O)Nc3ccc4c(c3)OCO4)c2N)c(OC)c1", "Potency": "inconclusive: 4.47 µM [activator, partial curve]"}
{"compound": "Cc1c(C(=O)O)nnn1-c1ccccc1", "activity change, negative = inhibition": "inactive: 13.3%"}
{"compound": "COc1ccc2cc(-c3cc(C(=O)OCC(=O)Nc4c(C)n(C)n(-c5ccccc5)c4=O)c4ccccc4n3)ccc2c1", "Potency": "inconclusive: 29.1 µM [inhibitor, single point] and inconclusive: 1.26 µM [inhibitor, partial curve, poor fit]"}
{"compound": "O=C1c2ccccc2NC(c2ccccc2O)N1NS(=O)(=O)c1ccccc1", "note": "(stereo unspecified)", "Potency": "inconclusive: 35.5 µM [inhibitor, single point]"}
{"compound": "COCCNc1nc(N)c([N+](=O)[O-])c(NCC2CCCO2)n1", "note": "(stereo unspecified)", "activity change, negative = inhibition": "inactive: 5.78%"}
{"compound": "O=c1[nH]cnc2sc3c(c12)CN(Cc1ccccc1)CC3", "activity change, negative = inhibition": "inactive: -17%"}
{"compound": "COc1ccc2cc(CN(CC3COCCO3)S(=O)(=O)c3ccc(Cl)cc3)c(=O)[nH]c2c1", "note": "(stereo unspecified)", "Potency": "inconclusive: 1.26 µM [activator, single point]"}
{"compound": "CN=C(C)/C(C(=O)OC)=C(/O)c1ccc(Cl)cc1Cl", "activity change, negative = inhibition": "inactive: -5.53%"}
{"compound": "Cc1ccc(CNC(=O)C2CCCN(C(=O)N(C)C)C2)cc1", "note": "(stereo unspecified)", "Potency": "inconclusive: 6.51 µM [activator, single point]"}
{"compound": "Cc1ccc(C(=O)CNc2ccccc2)cc1", "activity change, negative = inhibition": "inactive: 1.8%"}
{"compound": "O=C(CSc1nc2ccccc2[nH]1)c1ccco1", "activity change, negative = inhibition": "inactive: 16.7%"}
{"compound": "Cc1ccc(S(=O)(=O)/N=C2\\C=C(Nc3cccc(C(=O)O)c3)C(=O)c3ccccc32)c(C)c1", "Potency": "inconclusive: 15.8 µM [inhibitor, single point]"}
{"compound": "COc1ccc(-c2cc(-c3ccc(Br)cc3)nc3ncnn23)cc1OC", "Potency": "inconclusive: 1.3 µM [inhibitor, partial curve, poor fit]"}
{"compound": "Cc1ccc2cc(C)c(NCCO)nc2c1", "activity change, negative = inhibition": "inactive: 16.5%"}
{"compound": "Brc1cc2c(cc1C1OCCCO1)OCO2", "Potency": "inconclusive: 1.12 µM [activator, full curve, poor fit]"}
{"compound": "CCC(=O)Nc1cccc(-c2csc(-c3ccccc3)n2)c1", "Potency": "inconclusive: 25.1 µM [activator, partial curve, poor fit]"}
{"compound": "CC(C)CNC(=O)c1ccc(Cl)c(N)c1", "activity change, negative = inhibition": "inactive: -19.7%"}
{"compound": "CCOC(=O)c1c(NC(=O)COC(=O)CC(NC(C)=O)c2ccccc2)sc(C(=O)NC)c1C", "note": "(stereo unspecified)", "activity change, negative = inhibition": "inactive: 10.1%"}
{"compound": "O=C(CN1C(=O)NC2(CCCCCC2)C1=O)NCc1ccc(Cl)cc1", "activity change, negative = inhibition": "inactive: -20.1%"}
{"compound": "COc1ccc(NC(=O)CN(C)C(=O)c2cccc(S(=O)(=O)N3CCN(c4ccccc4)CC3)c2)cc1", "Potency": "inconclusive: 25.1 µM [inhibitor, partial curve, poor fit]"}
{"compound": "CCS(=O)(=O)Nc1cccc(C(=C2CCCCC2)c2cnc[nH]2)c1", "Potency": "inconclusive: 2.59 µM [activator, partial curve, poor fit]"}
{"compound": "COc1ccccc1N(CC(=O)Nc1ccc(C)cc1Cl)S(=O)(=O)c1cccs1", "Potency": "inconclusive: 25.1 µM [inhibitor, single point]"}
